Results: the supplement of paper PMC10849652
Some of the results follow.

By UniProt entry, the sequences of proteins in these tests, tags left out. Where a name states a change or a piece, a line headed by the entry shows the natural chain unless it says otherwise.
UniProt Q6IC98: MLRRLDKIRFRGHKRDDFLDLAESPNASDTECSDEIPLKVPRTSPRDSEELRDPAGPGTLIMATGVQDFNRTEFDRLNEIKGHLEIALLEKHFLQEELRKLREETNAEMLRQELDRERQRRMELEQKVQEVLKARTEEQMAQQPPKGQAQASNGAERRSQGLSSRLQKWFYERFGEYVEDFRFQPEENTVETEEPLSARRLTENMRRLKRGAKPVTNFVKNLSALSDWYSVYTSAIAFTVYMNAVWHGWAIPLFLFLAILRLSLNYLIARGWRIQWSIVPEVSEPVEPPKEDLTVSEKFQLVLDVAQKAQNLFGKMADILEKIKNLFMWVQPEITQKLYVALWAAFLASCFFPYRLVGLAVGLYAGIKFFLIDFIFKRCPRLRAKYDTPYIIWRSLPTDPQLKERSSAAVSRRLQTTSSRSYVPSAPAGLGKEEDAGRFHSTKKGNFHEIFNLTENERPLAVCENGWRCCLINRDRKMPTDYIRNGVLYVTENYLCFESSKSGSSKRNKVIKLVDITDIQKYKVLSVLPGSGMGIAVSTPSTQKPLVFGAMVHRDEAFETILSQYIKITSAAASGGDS
UniProt Q9Y4H4: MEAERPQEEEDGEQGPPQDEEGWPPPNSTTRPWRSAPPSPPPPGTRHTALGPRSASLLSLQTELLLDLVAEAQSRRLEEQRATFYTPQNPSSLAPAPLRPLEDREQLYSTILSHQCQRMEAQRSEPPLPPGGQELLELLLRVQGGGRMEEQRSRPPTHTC
UniProt O60443: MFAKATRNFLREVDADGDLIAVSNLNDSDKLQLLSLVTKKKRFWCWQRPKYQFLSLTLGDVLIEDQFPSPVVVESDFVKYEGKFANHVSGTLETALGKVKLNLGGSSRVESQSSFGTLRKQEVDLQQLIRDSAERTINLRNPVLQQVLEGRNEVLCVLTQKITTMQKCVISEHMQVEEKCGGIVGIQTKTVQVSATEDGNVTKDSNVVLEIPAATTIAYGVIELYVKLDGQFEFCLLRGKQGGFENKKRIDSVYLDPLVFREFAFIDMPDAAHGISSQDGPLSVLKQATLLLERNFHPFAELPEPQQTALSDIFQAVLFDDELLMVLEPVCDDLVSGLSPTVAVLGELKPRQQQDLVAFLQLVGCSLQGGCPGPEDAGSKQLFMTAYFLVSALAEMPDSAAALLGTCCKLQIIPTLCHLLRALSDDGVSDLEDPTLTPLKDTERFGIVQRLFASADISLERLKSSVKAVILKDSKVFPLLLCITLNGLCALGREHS
UniProt P28799: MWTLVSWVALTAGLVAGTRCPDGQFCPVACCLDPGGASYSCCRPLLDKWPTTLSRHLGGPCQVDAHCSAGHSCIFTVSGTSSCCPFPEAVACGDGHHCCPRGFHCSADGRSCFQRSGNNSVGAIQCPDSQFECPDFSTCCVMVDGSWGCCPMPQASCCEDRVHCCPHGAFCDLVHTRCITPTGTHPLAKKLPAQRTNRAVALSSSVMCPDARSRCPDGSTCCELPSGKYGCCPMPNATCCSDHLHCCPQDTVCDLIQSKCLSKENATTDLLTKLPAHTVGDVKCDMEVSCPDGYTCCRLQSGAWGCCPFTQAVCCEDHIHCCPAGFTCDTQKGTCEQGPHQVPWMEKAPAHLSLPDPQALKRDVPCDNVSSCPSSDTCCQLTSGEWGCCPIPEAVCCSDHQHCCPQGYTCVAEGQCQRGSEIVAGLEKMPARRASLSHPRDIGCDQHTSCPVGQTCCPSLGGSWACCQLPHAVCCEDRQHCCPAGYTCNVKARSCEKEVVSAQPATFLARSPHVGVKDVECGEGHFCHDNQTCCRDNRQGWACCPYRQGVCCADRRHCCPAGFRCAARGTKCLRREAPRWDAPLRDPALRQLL
UniProt Q6P1K8: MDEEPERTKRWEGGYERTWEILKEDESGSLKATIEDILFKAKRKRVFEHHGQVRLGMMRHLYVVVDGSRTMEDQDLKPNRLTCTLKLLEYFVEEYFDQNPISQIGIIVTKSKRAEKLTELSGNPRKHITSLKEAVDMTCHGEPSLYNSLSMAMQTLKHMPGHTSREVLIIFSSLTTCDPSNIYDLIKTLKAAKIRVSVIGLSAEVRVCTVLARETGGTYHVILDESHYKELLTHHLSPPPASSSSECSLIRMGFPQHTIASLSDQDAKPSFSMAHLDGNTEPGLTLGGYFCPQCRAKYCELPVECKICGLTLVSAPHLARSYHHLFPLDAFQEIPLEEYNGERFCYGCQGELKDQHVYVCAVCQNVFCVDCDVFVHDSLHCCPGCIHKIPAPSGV
UniProt O95479: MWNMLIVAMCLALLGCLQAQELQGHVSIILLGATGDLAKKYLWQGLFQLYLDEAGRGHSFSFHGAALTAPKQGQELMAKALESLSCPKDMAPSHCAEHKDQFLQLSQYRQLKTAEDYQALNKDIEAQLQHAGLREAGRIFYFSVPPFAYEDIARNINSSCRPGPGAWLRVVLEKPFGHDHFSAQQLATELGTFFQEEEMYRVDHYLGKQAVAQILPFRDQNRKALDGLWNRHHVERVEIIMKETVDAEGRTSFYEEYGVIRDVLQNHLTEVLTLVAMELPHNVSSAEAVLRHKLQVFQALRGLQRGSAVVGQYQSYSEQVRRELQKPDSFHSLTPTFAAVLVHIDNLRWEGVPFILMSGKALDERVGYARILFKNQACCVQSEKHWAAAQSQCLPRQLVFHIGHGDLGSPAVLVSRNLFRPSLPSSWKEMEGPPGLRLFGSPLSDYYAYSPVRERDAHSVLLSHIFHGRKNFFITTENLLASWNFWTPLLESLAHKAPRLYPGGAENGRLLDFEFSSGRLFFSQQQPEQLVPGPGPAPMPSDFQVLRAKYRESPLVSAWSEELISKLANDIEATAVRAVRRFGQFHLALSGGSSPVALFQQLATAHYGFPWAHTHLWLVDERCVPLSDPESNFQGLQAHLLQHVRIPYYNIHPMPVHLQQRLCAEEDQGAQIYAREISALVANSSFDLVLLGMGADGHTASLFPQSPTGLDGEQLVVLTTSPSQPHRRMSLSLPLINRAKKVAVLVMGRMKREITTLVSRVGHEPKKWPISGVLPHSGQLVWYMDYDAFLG
UniProt Q96NT3: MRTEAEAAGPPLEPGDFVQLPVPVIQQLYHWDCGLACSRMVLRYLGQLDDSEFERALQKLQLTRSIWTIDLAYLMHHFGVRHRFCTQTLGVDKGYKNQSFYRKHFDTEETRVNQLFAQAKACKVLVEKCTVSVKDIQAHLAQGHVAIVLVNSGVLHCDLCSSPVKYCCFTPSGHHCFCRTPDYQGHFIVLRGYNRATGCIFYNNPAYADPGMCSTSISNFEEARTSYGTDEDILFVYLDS
UniProt P51610: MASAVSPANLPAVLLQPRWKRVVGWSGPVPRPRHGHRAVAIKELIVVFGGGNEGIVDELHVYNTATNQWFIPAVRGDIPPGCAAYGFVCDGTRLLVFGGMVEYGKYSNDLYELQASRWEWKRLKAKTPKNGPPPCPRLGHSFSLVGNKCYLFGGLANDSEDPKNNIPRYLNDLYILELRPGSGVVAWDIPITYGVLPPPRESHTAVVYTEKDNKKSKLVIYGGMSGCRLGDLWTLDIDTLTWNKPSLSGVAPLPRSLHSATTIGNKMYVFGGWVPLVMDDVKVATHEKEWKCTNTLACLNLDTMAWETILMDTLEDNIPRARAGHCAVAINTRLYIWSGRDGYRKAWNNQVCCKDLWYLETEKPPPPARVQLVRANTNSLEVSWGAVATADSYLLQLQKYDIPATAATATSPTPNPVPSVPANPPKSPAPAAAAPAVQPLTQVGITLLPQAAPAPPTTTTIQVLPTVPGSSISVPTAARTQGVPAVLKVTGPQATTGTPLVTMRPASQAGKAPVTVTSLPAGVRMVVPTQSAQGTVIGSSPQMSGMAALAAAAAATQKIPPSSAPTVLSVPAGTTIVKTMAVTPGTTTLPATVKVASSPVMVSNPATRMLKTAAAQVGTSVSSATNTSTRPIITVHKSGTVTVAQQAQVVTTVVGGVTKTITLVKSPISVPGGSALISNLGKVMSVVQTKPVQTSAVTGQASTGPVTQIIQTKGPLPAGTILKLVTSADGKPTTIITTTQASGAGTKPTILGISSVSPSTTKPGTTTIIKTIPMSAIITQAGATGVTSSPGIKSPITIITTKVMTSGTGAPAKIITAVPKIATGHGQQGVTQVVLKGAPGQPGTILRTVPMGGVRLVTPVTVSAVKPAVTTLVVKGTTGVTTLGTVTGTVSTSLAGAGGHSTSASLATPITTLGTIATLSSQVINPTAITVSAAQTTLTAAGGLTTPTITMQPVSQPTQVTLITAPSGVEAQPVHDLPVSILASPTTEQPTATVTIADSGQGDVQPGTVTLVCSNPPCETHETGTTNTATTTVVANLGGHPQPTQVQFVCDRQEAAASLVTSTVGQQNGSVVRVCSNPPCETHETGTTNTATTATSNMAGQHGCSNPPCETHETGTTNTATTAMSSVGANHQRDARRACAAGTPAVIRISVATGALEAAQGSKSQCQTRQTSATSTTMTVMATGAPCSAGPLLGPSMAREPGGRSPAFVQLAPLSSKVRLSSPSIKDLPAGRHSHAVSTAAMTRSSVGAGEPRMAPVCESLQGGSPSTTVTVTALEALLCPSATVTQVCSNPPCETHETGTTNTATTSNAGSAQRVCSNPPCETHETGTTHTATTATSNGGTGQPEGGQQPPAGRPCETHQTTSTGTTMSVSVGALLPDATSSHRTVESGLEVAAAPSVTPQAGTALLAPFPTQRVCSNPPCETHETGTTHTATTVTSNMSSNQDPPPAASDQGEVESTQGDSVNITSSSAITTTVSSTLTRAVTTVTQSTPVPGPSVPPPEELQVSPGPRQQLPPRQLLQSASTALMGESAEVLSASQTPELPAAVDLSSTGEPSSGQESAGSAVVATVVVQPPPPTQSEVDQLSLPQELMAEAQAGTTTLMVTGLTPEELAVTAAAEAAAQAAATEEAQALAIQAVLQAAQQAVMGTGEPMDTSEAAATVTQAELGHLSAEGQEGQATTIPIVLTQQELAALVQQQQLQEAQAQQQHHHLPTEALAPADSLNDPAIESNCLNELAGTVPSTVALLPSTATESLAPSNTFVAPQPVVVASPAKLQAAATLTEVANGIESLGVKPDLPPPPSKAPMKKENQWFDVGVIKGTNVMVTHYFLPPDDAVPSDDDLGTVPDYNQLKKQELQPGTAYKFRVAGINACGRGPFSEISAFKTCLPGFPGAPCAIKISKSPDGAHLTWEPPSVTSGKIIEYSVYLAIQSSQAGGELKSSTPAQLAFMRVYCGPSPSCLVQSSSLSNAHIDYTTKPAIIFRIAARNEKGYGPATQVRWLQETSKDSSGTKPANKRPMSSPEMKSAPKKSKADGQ
UniProt P00390: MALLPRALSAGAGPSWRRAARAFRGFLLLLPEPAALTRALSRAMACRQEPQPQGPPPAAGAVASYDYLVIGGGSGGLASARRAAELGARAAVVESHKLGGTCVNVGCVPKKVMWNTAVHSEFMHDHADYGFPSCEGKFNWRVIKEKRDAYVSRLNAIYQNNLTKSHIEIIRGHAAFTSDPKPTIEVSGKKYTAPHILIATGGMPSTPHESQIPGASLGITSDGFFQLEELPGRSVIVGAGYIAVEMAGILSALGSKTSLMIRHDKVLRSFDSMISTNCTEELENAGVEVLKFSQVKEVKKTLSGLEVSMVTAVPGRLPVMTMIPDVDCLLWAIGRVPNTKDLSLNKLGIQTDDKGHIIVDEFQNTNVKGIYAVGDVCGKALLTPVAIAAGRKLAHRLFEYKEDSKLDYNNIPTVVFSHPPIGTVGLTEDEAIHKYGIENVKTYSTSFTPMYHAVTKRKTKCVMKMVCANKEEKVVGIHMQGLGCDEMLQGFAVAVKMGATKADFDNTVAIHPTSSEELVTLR

Key:
Assay in all cases: log2 fold change, soluble protein after heating vs DMSO (PISA); higher = thermal stabilisation; K562 lysate, 10 uM; active = over 0.2 and 3.5 SD of the protein, either way, in both replicates (recomputed)
[1] = compound: C#Cc1cccc(Nc2ncnc3cc(OCCOC)c(OCCOC)cc23)c1 [erlotinib]
Procedure, shortened: (§1)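 A 30 min treatment with 10 μM compound was applied to crude K562 extract at 1 mg/mL protein in PBS pH 7.4 with 1 mM MgCl2. Heating for 3 min spanned 48°C-58°C, after which aliquots were pooled, adjusted to 0.5% NP-40 at 4°C and spun at 21,000xg for 90 min. TMTpro 16plex LC-MS/MS of the supernatant, with channel sums equalised, gave values recorded as log-two fold change in thermal stability against solvent controls, from duplicates.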

[2] = compound: C/C(=N\NC(=O)C1=CC(=CC=C1)S(=O)(=O)N2CCOCC2)/C3=C(C=CC(=C3)Cl)O
Procedure, shortened: as §1

[3] = compound: C1=CC(=CC=C1C2=NC3=C(N2)C=C(C=C3)C(=O)N)OC4=CC=C(C=C4)Cl
Procedure, shortened: as §1

[4] = compound: C1=CC2=C(C=CC(=C2)/C=C\3/C(=O)NC(=NCC4=CC=CS4)S3)N=C1
Procedure, shortened: as §1

[5] = compound: C1=CC=C(C=C1)C2=NC(=C(N2)C3=CC=NC=C3)C4=CC(=C(C=C4)Cl)O
Procedure, shortened: as §1

[6] = compound: C1=CC=C2C(=C1)C3=NNC4=CC=CC(=C43)C2=O
Procedure, shortened: as §1

[7] = compound: C1CCN(C1)C(=O)NC2=CC=CC(=C2)NC3=NC=C(C(=N3)NCCC4=CN=CN4)Br
Procedure, shortened: as §1

[8] = compound: C1CN(CCC1(CC2=CC=C(C=C2)Cl)N)C3=NC=NC4=C3C=CN4
Procedure, shortened: as §1

[9] = compound: C1COCCN1CCN2C3=CC=CC=C3N=C2NC(=O)C4=CC(=CC=C4)[N+](=O)[O-] [IRAK-1-4 Inhibitor I]
Procedure, shortened: as §1

[10] = compound: CC(=O)c1cnc2ccc(-c3cc(Cl)c(O)c(Cl)c3)nc2c1N[C@H]1CC[C@H](CN(C)C)CC1
Procedure, shortened: as §1

[11] = compound: CC(C)(C)Cn1c(N)nc2ccc(-c3[nH]c(C(C)(C)C)nc3-c3ccc(F)cc3)nc21 [ralimetinib]
Procedure, shortened: as §1

[12] = compound: CC(C)(O)CC(=O)NCCn1ccc2ncnc(Nc3ccc(Oc4cccc(C(F)(F)F)c4)c(Cl)c3)c21
Procedure, shortened: as §1

[13] = compound: CC(C)C1=C2N=C(C=C(N2N=C1)NCC3=CC=CC=C3)NCCCCCCN
Procedure, shortened: as §1

[14] = compound: CC1=C(C(CC(=O)N1)C2=CC=C(C=C2)C(F)(F)F)C(=O)NC3=C(C=C4C(=C3)C=NN4)F
Procedure, shortened: as §1

[15] = compound: CC1=C(C2=C(C=C1)C(=O)C3=CC=CC=C3N2CCCN)C
Procedure, shortened: as §1

[16] = compound: CC1=C(C=C(C=C1)NC(=O)C2=CC(=CC=C2)C(C)(C)C#N)NC3=CC4=C(C=C3)N=CN(C4=O)C
Procedure, shortened: as §1

[17] = compound: CC1=C(C=C(C=C1)NC(=O)C2=CC(=CC=C2)N(C)C)NC(=O)C3=CC=C(C=C3)O
Procedure, shortened: as §1

[18] = compound: CC1=CC=C(C=C1)SC2=C3C=C(SC3=CN=C2)C(=O)N
Procedure, shortened: as §1

[19] = compound: C1=CC2=NC=CN=C2C=C1/C=C/3\C(=O)NC(=O)S3
Procedure, shortened: as §1

[20] = compound: C=CC(=O)N1CCC[C@@H](n2nc(-c3ccc(Oc4ccccc4)cc3)c3c(N)ncnc32)C1 [ibrutinib]
Procedure, shortened: as §1

Measured: log2 fold change

GRAMD4 (UniProt Q6IC98)
inactive: [1] 0.074 | [2] 0.091 | [3] -0.002 | [4] 0.03 | [5] 0.163 | [6] -0.178 | [7] -0.008 | [8] 0.147 | [9] 0.066 | [10] 0.087 | [11] -0.147 | [12] -0.187 | [13] 0.008 | [14] -0.041 | [15] -0.214 | [16] 0.202 | [17] 0.124 | [18] -0.29

HDAC3 (UniProt E7ESJ6)
inactive: [10] -0.107 | [18] -0.004

GPSM3 (UniProt Q9Y4H4)
inactive: [1] 0.069 | [3] 0.098 | [5] -0.006 | [9] 0.029 | [10] 0.024 | [11] 0 | [12] -0.064 | [13] -0.182 | [14] -0.008 | [15] 0.052 | [16] 0.029 | [17] 0.027 | [18] -0.064

GSDME (UniProt O60443)
inactive: [1] 0.073 | [3] 0.011 | [19] -0.004 | [7] -0.062 | [8] -0.046 | [20] -0.081 | [10] -0.024 | [13] -0.073 | [15] 0.117 | [16] -0.084 | [18] -0.034

GRN (UniProt P28799)
inactive: [1] -0.029 | [3] -0.003 | [5] -0.035 | [7] -0.013 | [8] -0.023 | [9] 0.036 | [10] -0.071 | [11] -0.023 | [12] 0.012 | [13] -0.001 | [15] 0.009 | [16] -0.074 | [17] 0.026 | [18] -0.091

GTF2H2C (UniProt Q6P1K8)
inactive: [5] 0.089 | [7] 0.111 | [8] 0.191 | [9] -0.073 | [11] -0.031 | [12] 0.086 | [15] -0.256 | [16] -0.043 | [17] -0.001

H6PD (UniProt O95479)
inactive: [1] -0.079 | [3] 0.019 | [19] 0.058 | [5] 0.003 | [7] 0.116 | [8] 0.11 | [9] 0.157 | [20] -0.038 | [10] 0.066 | [11] -0.057 | [12] -0.117 | [13] -0.007 | [14] -0.097 | [15] -0.031 | [16] -0.115 | [17] 0.045 | [18] -0.025

GUCD1 isoform 3 (UniProt Q96NT3)
inactive: [1] -0.183 | [3] -0.113 | [5] 0.084 | [9] -0.064 | [10] -0.067 | [11] -0.137 | [12] 0.07 | [13] -0.162 | [15] 0.017 | [16] 0.051 | [17] -0.016 | [18] 0.095

HCFC1 (UniProt P51610)
inactive: [1] -0.137 | [2] 0.131 | [3] 0 | [4] -0.014 | [19] 0.15 | [5] -0.024 | [6] -0.153 | [9] 0.179 | [20] 0.143 | [10] 0.052 | [11] -0.078 | [12] 0.001 | [13] -0.423 | [14] 0.103 | [16] 0.097 | [17] -0.007 | [18] 0.028

GSR isoform 5 (UniProt P00390)
inactive: [1] 0.065 | [2] -0.087 | [3] 0.164 | [4] -0.089 | [19] 0.023 | [5] -0.339 | [6] -0.277 | [9] 0.084 | [20] -0.033 | [10] -0.086 | [11] 0.092 | [12] -0.208 | [13] -0.014 | [15] -0.323 | [16] 0.188 | [17] 0.064 | [18] -0.087
